Data published in paper PMC5355235, “FLT3 activating mutations display differential sensitivity to multiple tyrosine kinase inhibitors” (Oncotarget, 2017).

Legend:
[1] = system: BaF3 FLT3 I836L+D mutant cells; test: MTT growth inhibition assay, BaF3 FLT3 I836L+D cells; format: cell-based; details: Mus musculus, no IL-3, 48 h, read-out: Proliferation IC50
Experimental: (§1) Figure 1 Growth of AL mutants in the presence of FLT3 TKI The BaF3 AL mutants were grown in the absence of IL-3 and analyzed by treatment in increasing concentrations of FLT3 TKI for 48 hours, after which growth inhibition was assessed using the MTT assay. Means are representative of at least three independent experiments.
(§2) The cells were grown in the absence of IL3 and analyzed by treatment in increasing concentrations of FLT3 TKI for 48 hours, after which growth inhibition was assessed using the MTT assay. Each experiment was performed at least three times and representative results are shown.
(§3) Based on Trypan Blue exclusion, 2 × 10^4 viable cells were seeded in quadruplicate in a 96-well microtiter plate in the presence or absence of inhibitor for 48 h. The effect of drug activity on cell viability was measured using the 3-(4,5-Dimethylthiazol-2-yl)-2,5-diphenyltetrazolium bromide (MTT) assay according to the manufacturer's instructions (Roche Applied Science, Indianapolis, IN, USA). Following treatment, cells were incubated for 4 h in MTT followed by dissolution in solubilization buffer overnight. Absorbance was measured at 570 nm on a Bio-Rad plate reader (Hercules, CA, USA). […] Results shown are presented as means and are representative of at least three independent experiments.

[2] = system: BaF3 FLT3 D593D mutant cells; test: MTT growth inhibition assay, BaF3 FLT3 D593D cells; format: cell-based; details: Mus musculus, no IL-3, 48 h, read-out: Proliferation IC50
Experimental: as §1, §2, §3

[3] = system: BaF3 FLT3 I836S mutant cells; test: MTT growth inhibition assay, BaF3 FLT3 I836S cells; format: cell-based; details: Mus musculus, no IL-3, 48 h, read-out: Proliferation IC50
Experimental: as §1, §2, §3

[4] = system: BaF3 FLT3 D835L+K mutant cells; test: MTT growth inhibition assay, BaF3 FLT3 D835L+K cells; format: cell-based; details: Mus musculus, no IL-3, 48 h, read-out: Proliferation IC50
Experimental: as §1, §2, §3

BaF3/ITD cells = test: MTT growth inhibition assay, BaF3 FLT3-ITD cells; format: cell-based; details: Mus musculus, no IL-3, 48 h, read-out: Proliferation IC50
Experimental: as §1, §2, §3

[5] = system: BaF3 FLT3 I836T mutant cells; test: MTT growth inhibition assay, BaF3 FLT3 I836T cells; format: cell-based; details: Mus musculus, no IL-3, 48 h, read-out: Proliferation IC50
Experimental: as §1, §2, §3

[6] = system: BaF3 FLT3 D835N mutant cells; test: MTT growth inhibition assay, BaF3 FLT3 D835N cells; format: cell-based; details: Mus musculus, no IL-3, 48 h, read-out: Proliferation IC50
Experimental: as §1, §2, §3

[7] = system: BaF3 FLT3 D835A mutant cells; test: MTT growth inhibition assay, BaF3 FLT3 D835A cells; format: cell-based; details: Mus musculus, no IL-3, 48 h, read-out: Proliferation IC50
Experimental: as §1, §2, §3

[8] = system: BaF3 FLT3 D835G mutant cells; test: MTT growth inhibition assay, BaF3 FLT3 D835G cells; format: cell-based; details: Mus musculus, no IL-3, 48 h, read-out: Proliferation IC50
Experimental: as §1, §2, §3

all FLT3 AL mutants = details: read-out: FLT3 autophosphorylation IC50, BaF3 cells, 1 h treatment, Western blot
Experimental: Activated FLT3 expression was measured by performing immunoprecipitation, SDS-PAGE and Western blotting as previously described. Specifically, 10^7 cells were washed in medium and treated with inhibitor for 1 h followed by stimulation with 25 ng/ml of FLT3 ligand for 15 minutes where indicated. Cells were washed twice with ice-cold PBS and lysed in 300 µl of NP-40 lysis buffer (150 mM NaCl, 20 mM TrisHCl (pH7.4), 10% glycerol, 1% NP-40, 10 mM EDTA, 100 mM NaF) with 2 mM Na3VO4 and protease inhibitors (Complete Tablets, Roche, Mannheim, Germany) at 4°C for 30 m. Cell lysate was harvested by centrifugation at 13,000 × g for 30 m at 4°C. FLT3 S-18 antibody was incubated with 500 µg lysate overnight at 4°C followed by immunoprecipitation with protein A-agarose beads for 2 h. Beads were washed once in Tris buffered saline with 1% Tween-20 (TBST) and twice in TBS. Samples were boiled in sodium dodecyl sulfate (SDS) sample buffer prior to separating in a 8% SDS-polyacrylamide gel (SDS-PAGE). Proteins were transferred to a polyvinyl diflouride (PVDF) membrane (Millipore, Bedford, MA, USA) and detected by 4G10 phosphotyrosine antibody and anti-FLT3 S-18 antibody. FLT3 was visualized using the Odyssey Infra Red Imaging System from Li-Cor (Lincoln, NE, USA) using AlexaFluor 680 goat anti-mouse and AlexaFluor 800 goat anti-rabbit antibodies. […]

[9] = system: BaF3 FLT3 D835Y mutant cells; test: MTT growth inhibition assay, BaF3 FLT3 D835Y cells; format: cell-based; details: Mus musculus, no IL-3, 48 h, read-out: Proliferation IC50
Experimental: as §1, §2, §3

IC50 [1]: 5.2 nM
IC50 [2]: 2.4 nM
IC50 [3]: 10.2 nM
IC50 [4]: 1 nM
IC50 (BaF3/ITD cells): 9.3 nM
IC50 [5]: 10 nM
IC50 [6]: 8.4 nM
IC50 [7]: 5 nM
IC50 [8]: 7.9 nM
IC50 (all FLT3 AL mutants): ≤ 5 nM
IC50 [9]: 10 nM
Compound: CO[C@@H]1[C@H](N(C)C(=O)c2ccccc2)C[C@H]2O[C@]1(C)n1c3ccccc3c3c4c(c5c6ccccc6n2c5c31)C(=O)NC4 [Midostaurin]
